Reference: publication PMC7273913

Target: Xenopus laevis FANCD2, 6xHis-tagged (Xenopus laevis)
Assay: pull-down; 0.5 µg 6xHis-FANCD2 as bait on magnetic Ni-NTA, 10 µg FANCL URD-RING as prey; 4°C, 2 h; 100 mM Tris pH 8, 100 mM NaCl, 0.05% Triton-X, 0.1% BSA; three washes; SDS-PAGE, Coomassie stain quantified, corrected for the beads-only control and normalized to WT; both purified

Binder	binding
Human FANCL URD-RING (109–375) N270K (domain or fragment, UniProt Q9NW38 109-375) QFYSSLIEEIGTLGWDKLVYADTCFSTIKLKAEDASGREHLITLKLKAKYPAESPDYFVDFPVPFCASWTPQSSLISIYSQFLAAIESLKAFWDVMDEIDEKTWVLEPEKPPRSATARRIALGNNVSINIEVDPRHPTMLPECFFLGADHVVKPLGIKLSRKIHLWDPENSVLQNLKDVLEIDFPARAILEKSDFTMDCGICYAYQLDGTIPDQVCDNSQCGQPFHQICLYEWLRGLLTSRQSFNIIFGECPYCSKPITLKMSGRKH	binds
Human FANCL URD-RING (109–375) L149V (domain or fragment, UniProt Q9NW38 109-375) QFYSSLIEEIGTLGWDKLVYADTCFSTIKLKAEDASGREHVITLKLKAKYPAESPDYFVDFPVPFCASWTPQSSLISIYSQFLAAIESLKAFWDVMDEIDEKTWVLEPEKPPRSATARRIALGNNVSINIEVDPRHPTMLPECFFLGADHVVKPLGIKLSRNIHLWDPENSVLQNLKDVLEIDFPARAILEKSDFTMDCGICYAYQLDGTIPDQVCDNSQCGQPFHQICLYEWLRGLLTSRQSFNIIFGECPYCSKPITLKMSGRKH	binds
Human FANCL URD-RING (109–375) E217K (domain or fragment, UniProt Q9NW38 109-375) QFYSSLIEEIGTLGWDKLVYADTCFSTIKLKAEDASGREHLITLKLKAKYPAESPDYFVDFPVPFCASWTPQSSLISIYSQFLAAIESLKAFWDVMDEIDEKTWVLEPKKPPRSATARRIALGNNVSINIEVDPRHPTMLPECFFLGADHVVKPLGIKLSRNIHLWDPENSVLQNLKDVLEIDFPARAILEKSDFTMDCGICYAYQLDGTIPDQVCDNSQCGQPFHQICLYEWLRGLLTSRQSFNIIFGECPYCSKPITLKMSGRKH	binds
Human FANCL URD-RING (109–375) A192G (domain or fragment, UniProt Q9NW38 109-375) QFYSSLIEEIGTLGWDKLVYADTCFSTIKLKAEDASGREHLITLKLKAKYPAESPDYFVDFPVPFCASWTPQSSLISIYSQFLGAIESLKAFWDVMDEIDEKTWVLEPEKPPRSATARRIALGNNVSINIEVDPRHPTMLPECFFLGADHVVKPLGIKLSRNIHLWDPENSVLQNLKDVLEIDFPARAILEKSDFTMDCGICYAYQLDGTIPDQVCDNSQCGQPFHQICLYEWLRGLLTSRQSFNIIFGECPYCSKPITLKMSGRKH	binds
Human FANCL URD-RING (109–375) E289Q (domain or fragment, UniProt Q9NW38 109-375) QFYSSLIEEIGTLGWDKLVYADTCFSTIKLKAEDASGREHLITLKLKAKYPAESPDYFVDFPVPFCASWTPQSSLISIYSQFLAAIESLKAFWDVMDEIDEKTWVLEPEKPPRSATARRIALGNNVSINIEVDPRHPTMLPECFFLGADHVVKPLGIKLSRNIHLWDPENSVLQNLKDVLQIDFPARAILEKSDFTMDCGICYAYQLDGTIPDQVCDNSQCGQPFHQICLYEWLRGLLTSRQSFNIIFGECPYCSKPITLKMSGRKH	binds
Human FANCL URD-RING (109–375) M247V (domain or fragment, UniProt Q9NW38 109-375) QFYSSLIEEIGTLGWDKLVYADTCFSTIKLKAEDASGREHLITLKLKAKYPAESPDYFVDFPVPFCASWTPQSSLISIYSQFLAAIESLKAFWDVMDEIDEKTWVLEPEKPPRSATARRIALGNNVSINIEVDPRHPTVLPECFFLGADHVVKPLGIKLSRNIHLWDPENSVLQNLKDVLEIDFPARAILEKSDFTMDCGICYAYQLDGTIPDQVCDNSQCGQPFHQICLYEWLRGLLTSRQSFNIIFGECPYCSKPITLKMSGRKH	binds
Human FANCL URD-RING (109–375) L154S (domain or fragment, UniProt Q9NW38 109-375) QFYSSLIEEIGTLGWDKLVYADTCFSTIKLKAEDASGREHLITLKSKAKYPAESPDYFVDFPVPFCASWTPQSSLISIYSQFLAAIESLKAFWDVMDEIDEKTWVLEPEKPPRSATARRIALGNNVSINIEVDPRHPTMLPECFFLGADHVVKPLGIKLSRNIHLWDPENSVLQNLKDVLEIDFPARAILEKSDFTMDCGICYAYQLDGTIPDQVCDNSQCGQPFHQICLYEWLRGLLTSRQSFNIIFGECPYCSKPITLKMSGRKH	binds

The remaining lines, values ahead:

binding	Binder
binds	Human FANCL URD-RING (residues 109–375), wild type (domain or fragment, UniProt Q9NW38 109-375) QFYSSLIEEIGTLGWDKLVYADTCFSTIKLKAEDASGREHLITLKLKAKYPAESPDYFVDFPVPFCASWTPQSSLISIYSQFLAAIESLKAFWDVMDEIDEKTWVLEPEKPPRSATARRIALGNNVSINIEVDPRHPTMLPECFFLGADHVVKPLGIKLSRNIHLWDPENSVLQNLKDVLEIDFPARAILEKSDFTMDCGICYAYQLDGTIPDQVCDNSQCGQPFHQICLYEWLRGLLTSRQSFNIIFGECPYCSKPITLKMSGRKH
binds	Human FANCL URD-RING (109–375) hydrophobic patch mutant L248A, F252A, L254A, I265A (domain or fragment, UniProt Q9NW38 109-375) QFYSSLIEEIGTLGWDKLVYADTCFSTIKLKAEDASGREHLITLKLKAKYPAESPDYFVDFPVPFCASWTPQSSLISIYSQFLAAIESLKAFWDVMDEIDEKTWVLEPEKPPRSATARRIALGNNVSINIEVDPRHPTMAPECAFAGADHVVKPLGAKLSRNIHLWDPENSVLQNLKDVLEIDFPARAILEKSDFTMDCGICYAYQLDGTIPDQVCDNSQCGQPFHQICLYEWLRGLLTSRQSFNIIFGECPYCSKPITLKMSGRKH
binds	Human FANCL URD-RING (109–375) R221W (domain or fragment, UniProt Q9NW38 109-375) QFYSSLIEEIGTLGWDKLVYADTCFSTIKLKAEDASGREHLITLKLKAKYPAESPDYFVDFPVPFCASWTPQSSLISIYSQFLAAIESLKAFWDVMDEIDEKTWVLEPEKPPWSATARRIALGNNVSINIEVDPRHPTMLPECFFLGADHVVKPLGIKLSRNIHLWDPENSVLQNLKDVLEIDFPARAILEKSDFTMDCGICYAYQLDGTIPDQVCDNSQCGQPFHQICLYEWLRGLLTSRQSFNIIFGECPYCSKPITLKMSGRKH
binds	Human FANCL URD-RING (109–375) T224K (domain or fragment, UniProt Q9NW38 109-375) QFYSSLIEEIGTLGWDKLVYADTCFSTIKLKAEDASGREHLITLKLKAKYPAESPDYFVDFPVPFCASWTPQSSLISIYSQFLAAIESLKAFWDVMDEIDEKTWVLEPEKPPRSAKARRIALGNNVSINIEVDPRHPTMLPECFFLGADHVVKPLGIKLSRNIHLWDPENSVLQNLKDVLEIDFPARAILEKSDFTMDCGICYAYQLDGTIPDQVCDNSQCGQPFHQICLYEWLRGLLTSRQSFNIIFGECPYCSKPITLKMSGRKH

No constants are given. Whether binding was seen depends on the method and setting. Binding can be weak; no strength is given.
